Test: in vivo
Details: mouse, blood, po, 100 mg/kg

**Q.** With `CC1=C(C(=O)O)N2C(=O)[C@@H](NC(=O)[C@H](N)c3ccccc3)[C@H]2SC1` [Cephalexin Monohydrate, reference compound] as the molecule, how does the concentration at 1 h read?
**A.** 26900 ng/mL

**Q.** And the concentration at 2 h?
**A.** 8500 ng/mL

**Q.** And the concentration at 3.5 h?
**A.** < 4600 ng/mL

— patent US3985747A, “Crystalline sesquihydrate of 7-[D-α-amino-α-(p-hydroxyphenyl)acetamido]-3-(1,2,3-triazol- 5-ylthiomethyl)-3-cephem-4-carboxylic acid” (priority 1974, dated 1976)
